From patent publication US20260265396A1
These are yes or no findings as the source states them, for the method shown.

Target: His-tagged amyloid-β precursor protein (APP)
Assay: ELISA, hybridoma supernatant

B1: mouse monoclonal antibody 26D3 (antibody, mouse IgG2a, V domains shown)
VH: EVQLQQFGVELVKPGASVKISCKASGYIFTDYNMDWVKQSHGKSLEWIGDINPDYDTTSYNEKFKGKATLTVDKSSSTAYMELRSLTSEDTAVYYCARGGYSGSSYYHPMDYWGQGTSVTVSS
VL: DIVMSQSPSSLAVSVGEKITMSCKSSQSLLYSTNQKNYLAWYQQKPGQSPELLIYWASTRESGVPDRFTGSGSGTDFTLTISNVRAEDLAVYYCQQYFIYPRTFGGGTKLEIK
**Q.** For B1, which binding is on record?
**A.** Its binding is “no binding”.
